Experimental data published in the supplement of paper PMC10849652.
The list shows a part of the results.

Amino acid sequences for entries named in this document (tags omitted). A change or cut given only in a name is not applied to a line headed by its entry.
UniProt Q15800: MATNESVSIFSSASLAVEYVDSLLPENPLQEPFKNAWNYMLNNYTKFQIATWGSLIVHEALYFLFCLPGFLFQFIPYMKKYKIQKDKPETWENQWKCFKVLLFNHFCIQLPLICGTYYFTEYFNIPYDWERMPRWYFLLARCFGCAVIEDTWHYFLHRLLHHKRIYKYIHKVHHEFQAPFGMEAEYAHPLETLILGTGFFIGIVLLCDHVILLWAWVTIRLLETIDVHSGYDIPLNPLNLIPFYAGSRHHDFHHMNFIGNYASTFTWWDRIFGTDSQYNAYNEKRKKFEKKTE
UniProt O75570: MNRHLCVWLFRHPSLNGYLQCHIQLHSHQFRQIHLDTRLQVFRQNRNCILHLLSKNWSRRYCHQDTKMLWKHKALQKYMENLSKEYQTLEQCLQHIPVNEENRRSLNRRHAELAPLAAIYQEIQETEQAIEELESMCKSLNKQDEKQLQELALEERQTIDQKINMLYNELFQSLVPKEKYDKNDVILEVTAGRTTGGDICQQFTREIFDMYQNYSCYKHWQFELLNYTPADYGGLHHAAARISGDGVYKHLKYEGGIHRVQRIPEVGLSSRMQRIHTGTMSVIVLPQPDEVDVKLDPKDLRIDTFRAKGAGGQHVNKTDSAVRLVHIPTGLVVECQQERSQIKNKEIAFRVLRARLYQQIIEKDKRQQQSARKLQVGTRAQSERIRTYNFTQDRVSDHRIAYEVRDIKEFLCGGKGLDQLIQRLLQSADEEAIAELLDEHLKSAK
UniProt P42285: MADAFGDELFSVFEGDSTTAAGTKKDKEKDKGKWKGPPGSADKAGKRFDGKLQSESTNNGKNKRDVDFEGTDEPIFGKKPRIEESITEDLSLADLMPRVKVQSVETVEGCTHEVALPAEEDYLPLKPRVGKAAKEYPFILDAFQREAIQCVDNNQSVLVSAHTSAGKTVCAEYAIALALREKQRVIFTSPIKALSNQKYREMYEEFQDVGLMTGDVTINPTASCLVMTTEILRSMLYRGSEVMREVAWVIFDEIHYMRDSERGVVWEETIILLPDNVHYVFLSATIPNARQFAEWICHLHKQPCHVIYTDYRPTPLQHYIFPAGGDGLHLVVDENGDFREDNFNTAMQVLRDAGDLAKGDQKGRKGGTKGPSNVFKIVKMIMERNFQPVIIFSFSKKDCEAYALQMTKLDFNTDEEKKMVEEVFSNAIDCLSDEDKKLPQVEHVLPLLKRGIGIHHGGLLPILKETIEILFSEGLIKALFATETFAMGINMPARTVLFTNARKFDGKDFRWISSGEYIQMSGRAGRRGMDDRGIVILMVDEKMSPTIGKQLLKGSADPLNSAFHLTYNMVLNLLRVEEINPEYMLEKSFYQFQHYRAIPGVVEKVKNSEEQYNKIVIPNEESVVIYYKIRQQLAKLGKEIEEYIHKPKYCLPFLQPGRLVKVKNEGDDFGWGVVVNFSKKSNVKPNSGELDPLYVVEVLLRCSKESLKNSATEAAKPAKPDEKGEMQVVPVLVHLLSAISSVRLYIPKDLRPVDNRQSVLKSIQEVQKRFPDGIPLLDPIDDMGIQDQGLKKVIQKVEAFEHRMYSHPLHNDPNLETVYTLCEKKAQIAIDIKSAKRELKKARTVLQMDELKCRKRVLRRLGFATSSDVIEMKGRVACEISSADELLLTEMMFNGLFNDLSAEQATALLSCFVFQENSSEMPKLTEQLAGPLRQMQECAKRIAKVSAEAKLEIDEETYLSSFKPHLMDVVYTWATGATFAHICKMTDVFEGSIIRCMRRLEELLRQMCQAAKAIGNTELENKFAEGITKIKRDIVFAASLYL
UniProt P00156: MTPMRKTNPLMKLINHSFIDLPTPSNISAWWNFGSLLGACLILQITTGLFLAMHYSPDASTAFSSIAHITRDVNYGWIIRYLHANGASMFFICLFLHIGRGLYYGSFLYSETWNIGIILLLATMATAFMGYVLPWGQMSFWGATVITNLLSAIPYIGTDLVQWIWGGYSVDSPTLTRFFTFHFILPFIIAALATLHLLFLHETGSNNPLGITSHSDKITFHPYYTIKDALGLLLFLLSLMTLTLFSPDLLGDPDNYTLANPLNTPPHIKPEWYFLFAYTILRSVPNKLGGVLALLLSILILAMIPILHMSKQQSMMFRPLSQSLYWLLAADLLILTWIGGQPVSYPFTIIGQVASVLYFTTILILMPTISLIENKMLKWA
UniProt Q9ULH7: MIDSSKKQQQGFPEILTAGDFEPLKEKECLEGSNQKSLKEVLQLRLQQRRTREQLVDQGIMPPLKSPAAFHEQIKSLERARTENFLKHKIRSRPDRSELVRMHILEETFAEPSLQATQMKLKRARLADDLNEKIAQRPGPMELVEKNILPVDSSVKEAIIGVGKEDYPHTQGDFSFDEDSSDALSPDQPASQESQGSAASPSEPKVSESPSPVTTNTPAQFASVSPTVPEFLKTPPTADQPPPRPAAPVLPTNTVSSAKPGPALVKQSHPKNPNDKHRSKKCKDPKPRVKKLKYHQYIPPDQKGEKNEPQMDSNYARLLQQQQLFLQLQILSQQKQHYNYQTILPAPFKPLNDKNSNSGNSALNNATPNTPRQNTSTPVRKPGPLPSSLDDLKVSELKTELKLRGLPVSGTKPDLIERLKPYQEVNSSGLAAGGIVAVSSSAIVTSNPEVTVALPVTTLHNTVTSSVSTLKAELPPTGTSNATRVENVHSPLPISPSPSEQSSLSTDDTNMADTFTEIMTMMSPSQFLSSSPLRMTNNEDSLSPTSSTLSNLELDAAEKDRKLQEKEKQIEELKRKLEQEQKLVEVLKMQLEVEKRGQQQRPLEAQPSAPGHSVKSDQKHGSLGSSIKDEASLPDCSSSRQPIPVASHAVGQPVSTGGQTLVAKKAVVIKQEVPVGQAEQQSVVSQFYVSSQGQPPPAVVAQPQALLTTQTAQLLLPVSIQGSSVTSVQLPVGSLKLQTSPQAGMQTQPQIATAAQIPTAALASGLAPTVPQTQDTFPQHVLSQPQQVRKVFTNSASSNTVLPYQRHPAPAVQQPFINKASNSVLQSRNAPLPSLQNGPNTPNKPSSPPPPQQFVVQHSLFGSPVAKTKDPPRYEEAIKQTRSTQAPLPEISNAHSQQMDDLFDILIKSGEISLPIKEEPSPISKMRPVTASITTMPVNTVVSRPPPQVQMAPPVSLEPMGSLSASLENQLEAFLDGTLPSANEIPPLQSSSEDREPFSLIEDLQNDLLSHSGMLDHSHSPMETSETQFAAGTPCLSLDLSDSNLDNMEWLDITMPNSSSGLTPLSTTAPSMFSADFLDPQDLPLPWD
UniProt P00403, whole entry, looked up: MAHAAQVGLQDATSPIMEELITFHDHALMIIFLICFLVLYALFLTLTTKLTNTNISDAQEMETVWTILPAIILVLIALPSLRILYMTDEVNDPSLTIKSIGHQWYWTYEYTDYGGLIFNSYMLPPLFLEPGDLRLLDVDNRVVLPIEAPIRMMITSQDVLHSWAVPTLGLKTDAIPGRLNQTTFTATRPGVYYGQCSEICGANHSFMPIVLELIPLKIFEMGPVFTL
UniProt P35579, whole entry, looked up: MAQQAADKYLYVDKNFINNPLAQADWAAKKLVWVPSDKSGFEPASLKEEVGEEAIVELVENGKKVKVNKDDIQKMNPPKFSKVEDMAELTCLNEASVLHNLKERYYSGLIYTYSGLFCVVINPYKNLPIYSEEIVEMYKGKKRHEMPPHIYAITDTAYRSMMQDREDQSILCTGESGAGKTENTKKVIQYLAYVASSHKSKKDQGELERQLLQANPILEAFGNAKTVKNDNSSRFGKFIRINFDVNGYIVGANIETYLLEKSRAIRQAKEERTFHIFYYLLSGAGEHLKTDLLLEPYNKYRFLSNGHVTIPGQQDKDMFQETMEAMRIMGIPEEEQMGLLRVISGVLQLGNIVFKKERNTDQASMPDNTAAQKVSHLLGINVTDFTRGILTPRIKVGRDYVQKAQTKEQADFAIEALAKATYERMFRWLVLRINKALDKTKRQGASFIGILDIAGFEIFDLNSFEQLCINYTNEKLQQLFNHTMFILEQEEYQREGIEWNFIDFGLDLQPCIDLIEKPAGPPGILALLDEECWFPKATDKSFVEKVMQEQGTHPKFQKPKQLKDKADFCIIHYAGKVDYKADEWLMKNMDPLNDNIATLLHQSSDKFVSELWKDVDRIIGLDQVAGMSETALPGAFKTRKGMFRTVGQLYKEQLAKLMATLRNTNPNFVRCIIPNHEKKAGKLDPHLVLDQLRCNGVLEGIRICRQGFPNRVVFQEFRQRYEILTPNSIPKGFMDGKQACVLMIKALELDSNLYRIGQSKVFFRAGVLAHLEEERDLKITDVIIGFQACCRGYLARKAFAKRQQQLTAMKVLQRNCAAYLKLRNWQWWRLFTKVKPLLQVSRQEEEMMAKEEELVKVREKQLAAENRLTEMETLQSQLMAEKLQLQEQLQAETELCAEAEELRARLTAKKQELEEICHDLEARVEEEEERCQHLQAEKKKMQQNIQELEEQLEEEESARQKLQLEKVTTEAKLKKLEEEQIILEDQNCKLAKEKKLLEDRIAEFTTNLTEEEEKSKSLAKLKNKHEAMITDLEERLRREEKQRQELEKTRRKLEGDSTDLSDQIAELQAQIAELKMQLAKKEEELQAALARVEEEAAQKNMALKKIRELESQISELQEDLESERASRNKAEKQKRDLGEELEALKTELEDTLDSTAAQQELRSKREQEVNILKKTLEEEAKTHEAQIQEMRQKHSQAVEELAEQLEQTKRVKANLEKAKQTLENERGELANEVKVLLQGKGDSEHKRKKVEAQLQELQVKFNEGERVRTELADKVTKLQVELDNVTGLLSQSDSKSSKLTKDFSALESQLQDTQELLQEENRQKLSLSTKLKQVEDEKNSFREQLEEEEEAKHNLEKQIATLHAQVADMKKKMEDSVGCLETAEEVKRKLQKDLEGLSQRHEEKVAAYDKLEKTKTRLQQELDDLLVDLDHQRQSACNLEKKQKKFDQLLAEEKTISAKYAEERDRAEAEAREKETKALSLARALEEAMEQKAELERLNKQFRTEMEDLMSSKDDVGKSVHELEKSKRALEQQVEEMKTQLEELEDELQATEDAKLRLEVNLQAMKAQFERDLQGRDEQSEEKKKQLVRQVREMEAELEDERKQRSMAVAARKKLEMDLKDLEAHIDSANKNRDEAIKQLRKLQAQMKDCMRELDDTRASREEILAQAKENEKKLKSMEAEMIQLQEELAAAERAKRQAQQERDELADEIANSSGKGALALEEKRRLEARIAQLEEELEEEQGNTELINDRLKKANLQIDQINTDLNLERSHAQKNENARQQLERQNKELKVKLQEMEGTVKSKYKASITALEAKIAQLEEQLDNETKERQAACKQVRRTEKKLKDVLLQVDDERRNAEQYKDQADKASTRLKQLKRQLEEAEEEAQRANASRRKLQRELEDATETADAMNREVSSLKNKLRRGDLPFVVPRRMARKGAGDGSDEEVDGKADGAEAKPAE
UniProt Q969H8: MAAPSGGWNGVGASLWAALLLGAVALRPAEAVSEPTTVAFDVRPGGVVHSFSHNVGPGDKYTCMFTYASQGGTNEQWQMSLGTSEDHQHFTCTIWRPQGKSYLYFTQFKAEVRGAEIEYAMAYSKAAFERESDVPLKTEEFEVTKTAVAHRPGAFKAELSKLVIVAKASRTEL
UniProt Q9Y3D2: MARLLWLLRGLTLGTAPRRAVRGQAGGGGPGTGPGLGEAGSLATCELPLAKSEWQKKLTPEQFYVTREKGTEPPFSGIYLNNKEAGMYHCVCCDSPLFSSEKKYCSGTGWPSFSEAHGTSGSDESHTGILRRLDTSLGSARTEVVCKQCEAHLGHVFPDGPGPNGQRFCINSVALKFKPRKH
UniProt Q765P7: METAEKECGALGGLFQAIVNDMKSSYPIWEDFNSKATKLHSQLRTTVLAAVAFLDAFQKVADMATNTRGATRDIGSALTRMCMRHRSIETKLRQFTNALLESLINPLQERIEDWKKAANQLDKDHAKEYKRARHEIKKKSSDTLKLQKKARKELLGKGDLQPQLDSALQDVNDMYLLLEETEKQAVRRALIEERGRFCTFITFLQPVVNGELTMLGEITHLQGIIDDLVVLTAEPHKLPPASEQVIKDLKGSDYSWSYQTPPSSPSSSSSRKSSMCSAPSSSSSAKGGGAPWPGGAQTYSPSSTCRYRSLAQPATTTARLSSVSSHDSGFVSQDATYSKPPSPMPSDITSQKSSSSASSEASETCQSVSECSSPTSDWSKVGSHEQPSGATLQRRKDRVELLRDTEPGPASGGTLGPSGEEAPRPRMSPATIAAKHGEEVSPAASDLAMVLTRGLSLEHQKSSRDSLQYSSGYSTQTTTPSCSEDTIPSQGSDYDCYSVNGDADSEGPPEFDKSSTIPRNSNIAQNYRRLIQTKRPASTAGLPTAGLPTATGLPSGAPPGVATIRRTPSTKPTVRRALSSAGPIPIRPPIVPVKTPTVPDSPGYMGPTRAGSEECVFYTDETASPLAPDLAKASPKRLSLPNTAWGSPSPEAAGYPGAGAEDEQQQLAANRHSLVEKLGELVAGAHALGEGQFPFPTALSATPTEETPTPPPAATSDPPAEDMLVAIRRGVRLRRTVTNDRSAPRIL

What was measured:
Assay in all cases: log2 fold change, soluble protein after heating vs DMSO (PISA); higher = thermal stabilisation; K562 cells, 10 uM, 30 min; active = over 0.2 and 3.5 SD of the protein, either way, in both replicates (recomputed)
[1] = compound: CC1=C(C=C(C=C1)NC(=O)C2=CC(=CC=C2)C(C)(C)C#N)NC3=CC4=C(C=C3)N=CN(C4=O)C
How it was run: (§1)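 K562 cells at 2×10^6 cells/mL were given 10 μM compound for 30 min. Aliquots then went through 3 min of heating across 48°C-58°C, were pooled, and were extracted in PBS with 0.5% NP-40 at 4°C, and the supernatant after 21,000xg for 90 min was quantified by TMTpro 16plex LC-MS/MS with channel sums equalised. Thermal stability relative to control samples, from duplicates, is given as log2 fold change.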

[2] = compound: CC1=C(C=C(C=C1)NC(=O)C2=CC(=CC=C2)N(C)C)NC(=O)C3=CC=C(C=C3)O
How it was run: as §1

[3] = compound: CC1=CC=C(C=C1)SC2=C3C=C(SC3=CN=C2)C(=O)N
How it was run: as §1

[4] = compound: CC1=NC(=CC=C1)C2=C(N=C(N2)C(C)(C)C)C3=CC4=NC=CN=C4C=C3
How it was run: as §1

Nexturastat A = compound: CCCCN(Cc1ccc(C(=O)NO)cc1)C(=O)Nc1ccccc1 [Nexturastat A]
How it was run: as §1

vemurafenib = compound: CCCS(=O)(=O)Nc1ccc(F)c(C(=O)c2c[nH]c3ncc(-c4ccc(Cl)cc4)cc23)c1F [vemurafenib]
How it was run: as §1

[5] = compound: CCCS(=O)(=O)Nc1ccc(F)c(C(=O)c2c[nH]c3ncc(Cl)cc23)c1F
How it was run: as §1

[6] = compound: CCCc1cc(C)[nH]c(=O)c1CNC(=O)c1cc(-c2ccnc(N3CCN(C)CC3)c2)cc2c1cnn2C(C)C
How it was run: as §1

givinostat = compound: CCN(CC)Cc1ccc2cc(COC(=O)Nc3ccc(C(=O)NO)cc3)ccc2c1 [givinostat]
How it was run: as §1

barasertib = compound: CCN(CCCOc1ccc2c(Nc3cc(CC(=O)Nc4cccc(F)c4)[nH]n3)ncnc2c1)CCOP(=O)(O)O [barasertib]
How it was run: as §1

[7] = compound: CC[C@@H]1C(=O)N(C)c2cnc(Nc3ccc(C(=O)NC4CCN(C)CC4)cc3OC)nc2N1C1CCCC1
How it was run: as §1

volasertib = compound: CC[C@@H]1C(=O)N(C)c2cnc(Nc3ccc(C(=O)N[C@H]4CC[C@H](N5CCN(CC6CC6)CC5)CC4)cc3OC)nc2N1C(C)C [volasertib]
How it was run: as §1

[8] = compound: CC[C@H](C)N1C=C(C2=C(C=C(C=C21)C3=CN=C(C=C3)N4CCNCC4)C(=O)NCC5=C(C=C(NC5=O)C)C)C
How it was run: as §1

epoxomicin = compound: CC[C@H](C)[C@@H](C(=O)N[C@@H]([C@@H](C)O)C(=O)N[C@@H](CC(C)C)C(=O)[C@]1(CO1)C)NC(=O)[C@H]([C@@H](C)CC)N(C)C(=O)C [epoxomicin]
How it was run: as §1

[9] = compound: CCn1c(C(=O)N(C2CC2)C2CC2)cc2c3c(ncn3C)c(Nc3cc(C)n(C)n3)nc21
How it was run: as §1

[10] = compound: CCn1cc(-c2ccnc3[nH]c(-c4cccc(CN(C)C)c4)cc23)c(-c2ccc(NC(=O)N(C)C)cc2)n1
How it was run: as §1

[11] = compound: CN(C)CC(=O)Nc1ccc2[nH]c(=O)c3ccccc3c2c1
How it was run: as §1

rosiglitazone = compound: CN(CCOC1=CC=C(C=C1)C[C@H]2C(=O)NC(=O)S2)C3=CC=CC=N3 (racemic) [rosiglitazone]
How it was run: as §1

[12] = compound: CN1C2=C(C3=C1C(=O)N(N=C3)CC4=CC(=CC=C4)N)SC(=C2)S(=O)C
How it was run: as §1

[13] = compound: CN1CCC(CNc2ccc3ncc(-c4cccc(OC(F)(F)F)c4)n3n2)CC1
How it was run: as §1

Measured: log2 fold change

MSMO1 (UniProt Q15800)
inactive: [1] -0.006 | [2] 0.026 | [3] -0.018 | [4] -0.001 | Nexturastat A -0.034 | vemurafenib -0.016 | [5] -0.001 | [6] -0.064 | givinostat -0.055 | barasertib -0.027 | [7] 0.05 | volasertib 0.066 | [8] -0.031 | epoxomicin 0.057 | [9] -0.028 | [10] 0.077 | [11] -0.019 | rosiglitazone -0.04 | [12] -0.029 | [13] -0.103

MTRF1 (UniProt O75570)
inactive: [1] -0.05

MTDH (UniProt Q86UE4)
inactive: [1] -0.006 | [2] 0.003 | [3] -0.04 | [4] -0.089 | Nexturastat A 0.274 | vemurafenib -0.12 | [5] -0.013 | [6] 0.134 | givinostat 0.021 | barasertib -0.137 | [7] 0.222 | volasertib 0.358 | [8] -0.052 | epoxomicin -0.318 | [9] 0.017 | [10] 0.27 | [11] -0.123 | rosiglitazone -0.169 | [12] 0.278 | [13] 0.331

MTREX (UniProt P42285)
inactive: [1] -0.028 | [2] -0.026 | [3] 0.007 | [4] 0.011 | Nexturastat A 0 | vemurafenib -0.008 | [5] 0.016 | [6] -0.02 | givinostat 0.015 | barasertib 0.015 | [7] 0.016 | volasertib -0.037 | [8] 0.033 | epoxomicin 0.037 | [9] -0.014 | [10] -0.085 | [11] 0.015 | rosiglitazone 0.046 | [12] -0.046 | [13] 0.121

Quoted from the entries so far (3 entries):
MTRF1 (UniProt O75570)
inactive: [1] -0.05

MTDH (UniProt Q86UE4)
inactive: [1] -0.006 | [2] 0.003 | [3] -0.04 | [4] -0.089 | Nexturastat A 0.274 | vemurafenib -0.12 | [5] -0.013 | [6] 0.134 | givinostat 0.021 | barasertib -0.137 | [7] 0.222 | volasertib 0.358 | [8] -0.052 | epoxomicin -0.318 | [9] 0.017 | [10] 0.27 | [11] -0.123 | rosiglitazone -0.169 | [12] 0.278 | [13] 0.331

MTREX (UniProt P42285)
inactive: [1] -0.028 | [2] -0.026 | [3] 0.007 | [4] 0.011 | Nexturastat A 0 | vemurafenib -0.008 | [5] 0.016 | [6] -0.02 | givinostat 0.015 | barasertib 0.015 | [7] 0.016 | volasertib -0.037 | [8] 0.033 | epoxomicin 0.037 | [9] -0.014 | [10] -0.085 | [11] 0.015 | rosiglitazone 0.046 | [12] -0.046 | [13] 0.121

Further results:

MTHFD1L (UniProt Q6UB35)
inactive: [1] -0.012 | [2] -0.014 | [3] 0.005 | [4] 0.021 | Nexturastat A -0.03 | vemurafenib 0.029 | [5] 0.028 | [6] -0.024 | givinostat -0.011 | barasertib 0.027 | [7] -0.02 | volasertib -0.06 | [8] 0.043 | epoxomicin 0.01 | [9] -0.002 | [10] -0.071 | [11] 0.034 | rosiglitazone 0.02 | [12] -0.063 | [13] -0.042

MT-CYB (UniProt P00156)
inactive: [1] 0.012 | [2] 0.088 | [3] -0.026 | [4] 0.015 | Nexturastat A -0.094 | vemurafenib 0.03 | [5] 0.14 | [6] -0.262 | givinostat -0.028 | barasertib -0.206 | [7] 0.076 | volasertib -0.185 | [8] -0.031 | epoxomicin -0.381 | [9] -0.01 | [10] -0.112 | [11] 0.139 | rosiglitazone 0.038 | [12] 0.003 | [13] 0.165

MYNN (UniProt Q9NPC7)
inactive: [1] 0.098 | [2] -0.009

MRTFB isoform 5 (UniProt Q9ULH7)
inactive: [1] 0.008 | [2] 0.021 | [3] 0.015 | [4] 0.035 | Nexturastat A -0.021 | vemurafenib 0.017 | [5] 0.015 | [6] 0.111 | givinostat 0.023 | barasertib 0.017 | [7] 0.031 | volasertib -0.038 | [8] 0.008 | epoxomicin 0.041 | [9] -0.016 | [10] -0.14 | [11] -0.011 | rosiglitazone 0.045 | [12] -0.094 | [13] -0.023

MTMR6 (UniProt Q9Y217)
inactive: [1] -0.076 | [2] 0.033 | [3] -0.025 | [4] 0.11 | Nexturastat A 0.023 | vemurafenib 0.064 | [5] -0.051 | [6] -0.024 | givinostat 0.1 | barasertib 0.004 | [7] -0.094 | volasertib 0.043 | [8] -0.015 | epoxomicin -0.061 | [9] -0.146 | [10] -0.003 | [11] -0.036 | rosiglitazone 0.078 | [12] -0.092 | [13] -0.015

MT-CO2 (UniProt P00403)
inactive: [1] 0.028 | [2] -0.022 | [3] -0.066 | [4] -0.076 | Nexturastat A -0.142 | vemurafenib 0.062 | [5] 0.005 | [6] -0.02 | givinostat -0.026 | barasertib -0.043 | [7] -0.032 | volasertib 0.045 | [8] -0.006 | epoxomicin 0.011 | [9] 0.03 | [10] -0.049 | [11] 0.152 | rosiglitazone 0.02 | [12] -0.115 | [13] 0.103

MYH9 (UniProt P35579)
inactive: [1] 0.011 | [2] -0.013 | [3] 0.04 | [4] 0.061 | Nexturastat A -0.136 | vemurafenib 0.046 | [5] 0.081 | [6] -0.005 | givinostat -0.029 | barasertib 0.009 | [7] -0.041 | volasertib -0.067 | [8] 0.021 | epoxomicin 0.043 | [9] -0.021 | [10] -0.048 | [11] 0.02 | rosiglitazone 0.035 | [12] -0.072 | [13] 0.068

MRPL58 (UniProt Q14197)
inactive: [1] 0.04 | [2] -0.013 | [3] -0.015 | [4] -0.036 | Nexturastat A 0.114 | vemurafenib -0.095 | [5] 0.021 | [6] 0.097 | givinostat 0.051 | barasertib -0.059 | [7] -0.023 | volasertib 0.067 | [8] 0.067 | epoxomicin -0.049 | [9] -0.071 | [10] 0.012 | [11] -0.034 | rosiglitazone -0.062 | [12] 0.071 | [13] -0.025

MYDGF (UniProt Q969H8)
inactive: [1] -0.047 | [2] 0.006 | [3] -0.007 | [4] -0.007 | Nexturastat A 0 | vemurafenib -0.028 | [5] -0.001 | [6] -0.01 | givinostat -0.003 | barasertib -0.016 | [7] 0.047 | volasertib 0.046 | [8] -0.036 | epoxomicin -0.005 | [9] 0.013 | [10] 0.005 | [11] -0.024 | rosiglitazone -0.035 | [12] -0.023 | [13] 0.072

MSRB2 (UniProt Q9Y3D2)
inactive: [1] 0.008 | [2] -0.174 | [3] -0.042 | [4] -0.079 | Nexturastat A 0.007 | vemurafenib -0.076 | [5] -0.157 | [6] -0.014 | givinostat 0.035 | barasertib 0.128 | [7] -0.078 | volasertib 0.25 | [8] 0.129 | epoxomicin 0.033 | [9] 0.009 | [10] -0.079 | [11] 0.172 | rosiglitazone 0.111 | [12] -0.123 | [13] 0.081

MTA1 (UniProt Q13330)
inactive: [1] 0 | [2] -0.001 | [3] 0.012 | [4] -0.031 | Nexturastat A -0.055 | vemurafenib 0.126 | [5] 0 | [6] 0.033 | givinostat 0.049 | barasertib 0.05 | [7] -0.071 | volasertib -0.096 | [8] 0.081 | epoxomicin -0.003 | [9] -0.108 | [10] -0.037 | [11] 0.127 | rosiglitazone -0.01 | [12] 0.079 | [13] 0.047

MTSS2 (UniProt Q765P7)
inactive: [1] -0.065 | [2] 0.008 | [3] -0.038 | [4] -0.04 | Nexturastat A -0.051 | vemurafenib 0.037 | [5] -0.106 | [6] 0.022 | givinostat -0.044 | barasertib -0.007 | [7] 0.106 | volasertib 0.041 | [8] -0.003 | epoxomicin -0.016 | [9] -0.037 | [10] 0.06 | [11] -0.009 | rosiglitazone 0.057 | [12] -0.022 | [13] -0.114

MRPS11 (UniProt P82912)
inactive: [1] 0.025 | [2] -0.079 | [3] -0.048 | [4] -0.142 | Nexturastat A -0.054 | vemurafenib 0.035 | [5] -0.061 | [6] -0.011 | givinostat 0.009 | barasertib 0.14 | [7] 0.056 | volasertib 0.081 | [8] 0.159 | epoxomicin -0.086 | [9] -0.197 | [10] 0.118 | [11] -0.069 | rosiglitazone 0.099 | [12] 0.016 | [13] 0.42

MYL6 isoform 2 (UniProt P60660)
inactive: [1] 0.031 | [2] -0.018 | [3] -0.022 | [4] 0.05 | Nexturastat A 0.03 | vemurafenib 0 | [5] -0.014 | [6] -0.021 | givinostat 0.024 | barasertib 0.086 | [7] -0.055 | volasertib -0.126 | [8] 0.059 | epoxomicin 0.051 | [9] 0.04 | [10] -0.013 | [11] 0.021 | rosiglitazone -0.01 | [12] -0.025 | [13] -0.003
